Results are given in words; binding and its absence hold for the method and conditions named. In cells and extracts the contact can be indirect. A yes stands for co-enrichment or nearness to the bait. Other partners may have been found.
Experiments:
HA-tagged PAX3 = HA-tagged PAX3 (UniProt P24610); experiment: affinity purification with mass spectrometry; immunoprecipitation of PAX3 from extracts of C2C12 cells transfected with HA-tagged Pax3; mass spectrometry
GST-PAX3 = GST-PAX3 (UniProt P24610); experiment: affinity purification with mass spectrometry; protein extracts of E10.5 wild type mouse limb buds incubated with GST-PAX3 protein, then immunoprecipitation with an anti-PAX3 antibody; mass spectrometry; only the target purified

The chains behind the UniProt entries cited, without tags or fusion partners.
UniProt P24610: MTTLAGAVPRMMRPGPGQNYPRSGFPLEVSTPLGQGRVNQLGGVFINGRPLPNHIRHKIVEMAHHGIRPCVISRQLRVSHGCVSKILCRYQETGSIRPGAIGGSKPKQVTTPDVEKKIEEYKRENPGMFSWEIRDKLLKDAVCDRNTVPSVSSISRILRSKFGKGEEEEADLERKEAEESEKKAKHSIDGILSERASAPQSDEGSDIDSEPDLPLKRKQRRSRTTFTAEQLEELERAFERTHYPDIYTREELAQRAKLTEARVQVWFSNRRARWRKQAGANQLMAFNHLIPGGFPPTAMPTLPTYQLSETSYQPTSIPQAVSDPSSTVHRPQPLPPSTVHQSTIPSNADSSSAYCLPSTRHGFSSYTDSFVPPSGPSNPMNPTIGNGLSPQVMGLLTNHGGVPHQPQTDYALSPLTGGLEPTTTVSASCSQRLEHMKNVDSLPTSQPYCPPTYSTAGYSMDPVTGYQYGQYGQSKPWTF

B1: DNM2 (dynamin-2) (protein, UniProt P39054 1-870)
chain: MGNRGMEELIPLVNKLQDAFSSIGQSCHLDLPQIAVVGGQSAGKSSVLENFVGRDFLPRGSGIVTRRPLILQLIFSKTEYAEFLHCKSKKFTDFDEVRQEIEAETDRVTGTNKGISPVPINLRVYSPHVLNLTLIDLPGITKVPVGDQPPDIEYQIKDMILQFISRESSLILAVTPANMDLANSDALKLAKEVDPQGLRTIGVITKLDLMDEGTDARDVLENKLLPLRRGYIGVVNRSQKDIEGKKDIRAALAAERKFFLSHPAYRHMADRMGTPHLQKTLNQQLTNHIRESLPTLRSKLQSQLLSLEKEVEEYKNFRPDDPTRKTKALLQMVQQFGVDFEKRIEGSGDQVDTLELSGGARINRIFHERFPFELVKMEFDEKDLRREISYAIKNIHGVRTGLFTPDLAFEAIVKKQVVKLKEPCLKCVDLVIQELISTVRQCTSKLSSYPRLREETERIVTTYIREREGRTKDQILLLIDIEQSYINTNHEDFIGFANAQQRSTQLNKKRAIPNQGEILVIRRGWLTINNISLMKGGSKEYWFVLTAESLSWYKDEEEKEKKYMLPLDNLKIRDVEKGFMSNKHVFAIFNTEQRNVYKDLRQIELACDSQEDVDSWKASFLRAGVYPEKDQAENEDGAQENTFSMDPQLERQVETIRNLVDSYVAIINKSIRDLMPKTIMHLMINNTKAFIHHELLAYLYSSADQSSLMEESAEQAQRRDDMLRMYHALKEALNIIGDISTSTVSTPVPPPVDDTWLQNTSGHSPTPQRRPVSSVHPPGRPPAVRGPTPGPPLIPMPVGATSSFSAPPIPSRPGPQSVFANNDPFSAPPQIPSRPARIPPGIPPGVPSRRAPAAPSRPTIIRPAEPSLLD
- binding (HA-tagged PAX3): binds
- binding (GST-PAX3): binds
